# Test results as given in publication PMC7819943, “Rice protein-binding microarrays: a tool to detect cis-acting elements near promoter regions in rice”.
# The list shows a part of the results.
# Biological target: T1, OsSMF1 (Oryza sativa, UniProt Q6ZLB0 1-436)
# T1 sequence: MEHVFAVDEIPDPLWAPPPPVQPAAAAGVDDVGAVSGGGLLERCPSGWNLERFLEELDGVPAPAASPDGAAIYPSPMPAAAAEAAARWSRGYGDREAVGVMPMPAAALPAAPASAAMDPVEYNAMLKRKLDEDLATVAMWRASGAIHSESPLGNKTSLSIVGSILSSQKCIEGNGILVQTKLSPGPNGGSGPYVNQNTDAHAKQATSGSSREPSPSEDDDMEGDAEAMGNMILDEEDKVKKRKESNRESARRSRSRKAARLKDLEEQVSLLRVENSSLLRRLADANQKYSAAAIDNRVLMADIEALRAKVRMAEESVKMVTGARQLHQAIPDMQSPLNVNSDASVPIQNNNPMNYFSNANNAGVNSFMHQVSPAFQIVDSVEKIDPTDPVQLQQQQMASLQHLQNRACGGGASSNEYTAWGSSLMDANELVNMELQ
# Experiment: protein-binding microarray (RPBM); PBS, 2% BSA, 51.3 ng/ul salmon testes DNA, 50 uM zinc acetate, 200 nM TF, 25 C, 1 h; high values mean tight binding
# Settings: protein: recombinant; tags: N-terminal polyhistidine and DsRed monomer fusion (pET32a); chain copies: 2; label: CyDye5-dUTP incorporated in the synthesized complementary strand; 3' TTTTT single-stranded linker to array surface; dsDNA, one strand shown
# How it was run: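 Transcription factors, each fused N-terminally to a polyhistidine tag and DsRed, were expressed in E. coli BL21-CodonPlus and purified on Ni–NTA. A custom Agilent array was made double-stranded by primer extension with Cy5-dUTP and blocked with 2% BSA. It was incubated with 200 nM protein in PBS, 2% BSA, salmon testes DNA and 50 µM zinc acetate at 25 °C for 1 h, then washed. The binding signal is per-feature fluorescence intensity (arbitrary units) read on an Axon 4000B scanner.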
row,Sequence,binding signal
1,TGTGTCATGGCTGATGTCAGCTCAGCATATATATATTCAGCGGAGTCACCTAGTGCAG,14900 fluorescence intensity (a.u.)
2,CAGTACTGATTAAGCATTCTTTCAATTCGTCTGTTCCCCACGGAGTCACCTAGTGCAG,25100 fluorescence intensity (a.u.)
3,GGACTCGGCCGAACATTTGGGAAGAACCAACCACACCACCCGGAGTCACCTAGTGCAG,8210 fluorescence intensity (a.u.)
4,CTAGGGCGTCGGAGGGGCGGAGGTGGAGCTGGAGCGCGGGCGGAGTCACCTAGTGCAG,4750 fluorescence intensity (a.u.)
5,AAGTTTATAACTATTTAAGTGACGTATACATAACGAAGAACGGAGTCACCTAGTGCAG,5020 fluorescence intensity (a.u.)
6,TCCGGCCCGAGCTCTCTGGCCACGGCACGACCGAGATCGTCGGAGTCACCTAGTGCAG,3540 fluorescence intensity (a.u.)
7,ACGAGATTAAAGGCGCCACACCGGCACGGCACGTGCCCTGCGGAGTCACCTAGTGCAG,4430 fluorescence intensity (a.u.)
8,GAGGTTAGACAAGTTTGACCATGTTAGGTGAGTGTTTGGTCGGAGTCACCTAGTGCAG,4150 fluorescence intensity (a.u.)
9,TATTGACTTGAATTGGTTCCTACACTTCATACCAACTTGTCGGAGTCACCTAGTGCAG,3190 fluorescence intensity (a.u.)
10,CCTATGACTATGCATCTGGCGAAGAGATTCTCCTTGTGATCGGAGTCACCTAGTGCAG,3420 fluorescence intensity (a.u.)
11,CGGTCTGACCGCCCACATACCTGCGGTCAGACCGGCCCTACGGAGTCACCTAGTGCAG,3420 fluorescence intensity (a.u.)
12,TGCCAAGCAAGTCCATGCCGCCACAACTCCTTCCTTCTCCCGGAGTCACCTAGTGCAG,3690 fluorescence intensity (a.u.)
13,TCGATCTCTTTACATCTCGTTGATGGCGTCATGGCGATGACGGAGTCACCTAGTGCAG,6700 fluorescence intensity (a.u.)
14,GCAGCGCCGCCGCCTCATCCGCGTCGACCTCCGCCTCCGCCGGAGTCACCTAGTGCAG,3340 fluorescence intensity (a.u.)
15,ATCCATGTTTCGACATAAACCCATTCAAACAAAGATCCATCGGAGTCACCTAGTGCAG,28800 fluorescence intensity (a.u.)
16,GGATCTACATTTTCGAATTTTACATATAGCAAAATAGCACCGGAGTCACCTAGTGCAG,3950 fluorescence intensity (a.u.)
17,TGGATATTTTCTACCCCTGGACCCAGCTGTCAGATCCAACCGGAGTCACCTAGTGCAG,3250 fluorescence intensity (a.u.)
18,TTACTTTTATATATATGACGTTTGACAATCCTCTTAATAACGGAGTCACCTAGTGCAG,3750 fluorescence intensity (a.u.)
19,ACCATGAATTCGATGATATTATCGTCAAAGTCATGAAAGACGGAGTCACCTAGTGCAG,3400 fluorescence intensity (a.u.)
20,GTTGCATGATTAAACGAATTGACACGTCCTGAACCCGATTCGGAGTCACCTAGTGCAG,7560 fluorescence intensity (a.u.)
21,AGTATTGATGATGCATCTTAGGTCACCAGCTGGCACGTCCCGGAGTCACCTAGTGCAG,5060 fluorescence intensity (a.u.)

row,Sequence,binding signal
1,CCTGCTATAAATACTTCACGTTGCTGTGTTCATAGAAACACGGAGTCACCTAGTGCAG,3200 fluorescence intensity (a.u.)
2,GGGTTGCAAATTTAACACCCGTCACAGGTGAGGTCAAACCCGGAGTCACCTAGTGCAG,4500 fluorescence intensity (a.u.)
3,ATAATTTGTTCAACATAGCTTCATGCCTTCTCAGCTTCTCCGGAGTCACCTAGTGCAG,3520 fluorescence intensity (a.u.)
4,CTTTTCTCTAACAGCGAGTTCAGTATCATTGACTGTCTCACGGAGTCACCTAGTGCAG,3370 fluorescence intensity (a.u.)
5,GCCACCCTCAGCCACTGGCCATCCGTGGGCCCCACCATCCCGGAGTCACCTAGTGCAG,22500 fluorescence intensity (a.u.)
6,AATTTTAGCATGGAACTAAACACAGCAGTAGTAGGAGTTTCGGAGTCACCTAGTGCAG,38200 fluorescence intensity (a.u.)
7,GAAGCCAGACACGTCAATTAAAGCTCGTAGGGATTTAGCTCGGAGTCACCTAGTGCAG,3160 fluorescence intensity (a.u.)
8,CCCAATACATTGCCTACGCCGTGCCAAGTGCCAAACAGGGCGGAGTCACCTAGTGCAG,4330 fluorescence intensity (a.u.)
9,TTGTATTTATGTGTGTGTACAGTCACCAGTATTTGTATTTCGGAGTCACCTAGTGCAG,9770 fluorescence intensity (a.u.)
10,CACTCTCTCTTCTCTCACTGCCACGTGGGCCCCACCCCATCGGAGTCACCTAGTGCAG,23000 fluorescence intensity (a.u.)
11,AAGCCGAAGCCACCCAGGGAGGGATTCAGCCGCGCGAGTCCGGAGTCACCTAGTGCAG,36300 fluorescence intensity (a.u.)
12,AACCCGGCGTTGGTGAGCTGTTCCATTGTGTCTATAGGCACGGAGTCACCTAGTGCAG,3210 fluorescence intensity (a.u.)
13,TGTTTTCTTGATTGAAATGAGGTGGCATTGCCTACTTGCCCGGAGTCACCTAGTGCAG,5940 fluorescence intensity (a.u.)
14,CACAAGTACTAGCCTCAATGCGTCACACGGACATGTACAGCGGAGTCACCTAGTGCAG,4120 fluorescence intensity (a.u.)
15,AGGGAGGAGAGGAAGATCACGAGCAATGCAGAACGTGGAGCGGAGTCACCTAGTGCAG,3730 fluorescence intensity (a.u.)
16,ACGAGTGGCAGCTAGAGATGGCAATGGGGACCCATGACCCCGGAGTCACCTAGTGCAG,11200 fluorescence intensity (a.u.)
17,ACAATCATTGTGATGTTGTCAAAGTCGTCCAAATACTTGCCGGAGTCACCTAGTGCAG,3470 fluorescence intensity (a.u.)
18,GCGGCCGCCGGCGCCGCTGTACATGTGCGTGCGGATACATCGGAGTCACCTAGTGCAG,3590 fluorescence intensity (a.u.)
19,CCCAAAACCATCGATGACATGTCGCTGTCATGCCACCACACGGAGTCACCTAGTGCAG,5910 fluorescence intensity (a.u.)
20,GCATGGCCCAGTTGACGTGGACGCTGCCCACCTATACTACCGGAGTCACCTAGTGCAG,10700 fluorescence intensity (a.u.)
21,GTCGCCGCCCTCTCTCTCTCACGCATCCCACGCCGCCGTGCGGAGTCACCTAGTGCAG,3180 fluorescence intensity (a.u.)

# Two consecutive records out of the list so far:
row,Sequence,binding signal
3,ATAATTTGTTCAACATAGCTTCATGCCTTCTCAGCTTCTCCGGAGTCACCTAGTGCAG,3520 fluorescence intensity (a.u.)
4,CTTTTCTCTAACAGCGAGTTCAGTATCATTGACTGTCTCACGGAGTCACCTAGTGCAG,3370 fluorescence intensity (a.u.)
